Test results from US20210246195A1.
Where a chain is given by its changes, count along the chain named. These are yes or no findings as the source states them, for the method shown. Some entries that bind do so weakly or less than the wild type.

Sequences of proteins named here, by UniProt entry; tags and fusion partners are left off. Residues count along the entry.
UniProt P43238, residues 26-626: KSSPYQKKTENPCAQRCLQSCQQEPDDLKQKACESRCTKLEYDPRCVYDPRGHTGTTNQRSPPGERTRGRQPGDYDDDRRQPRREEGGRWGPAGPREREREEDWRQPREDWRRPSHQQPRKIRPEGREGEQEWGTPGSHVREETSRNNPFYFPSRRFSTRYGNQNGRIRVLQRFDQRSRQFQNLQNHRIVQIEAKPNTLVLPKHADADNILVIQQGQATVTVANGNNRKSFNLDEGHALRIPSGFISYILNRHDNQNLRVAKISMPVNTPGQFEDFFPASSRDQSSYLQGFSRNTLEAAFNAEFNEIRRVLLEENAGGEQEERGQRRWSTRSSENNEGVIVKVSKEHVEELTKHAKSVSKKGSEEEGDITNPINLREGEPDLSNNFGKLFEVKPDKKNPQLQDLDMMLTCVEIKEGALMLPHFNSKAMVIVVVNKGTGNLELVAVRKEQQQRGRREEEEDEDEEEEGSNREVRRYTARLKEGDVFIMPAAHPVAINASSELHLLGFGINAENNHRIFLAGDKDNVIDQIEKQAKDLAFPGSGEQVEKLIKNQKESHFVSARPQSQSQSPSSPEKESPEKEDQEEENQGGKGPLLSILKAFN

B1: PA12P1C07 (antibody, human IgG1, V domains shown)
VH: QVQLEESGGGVVQPGKSLRLSCVASAFTFKRFAMHWVRQAPGKGLEWVAVISDNGLREDYEDSVKGRFTISRDNSKDTLYLQMNSLRPEDTAIYYCAKVLDYSEYSLYFGMDVWGQGTTVLVSS
VL: EIVLTQSPAILSLSPGDRATLSCRTSQTVNSNFLAWYQQKPGQAPRLLIYGASRRAIDIPDRFTGSGSGTEFTLTIARLEPEDFAVYSCQHYSDSPPYTFGQGTKLEIK
B2: PA12P3D08 (antibody, human IgG1, V domains shown)
VH: B1 VH with E5V, V23A, K30R, K76Q, D77N, S85G, P88A, I93V, S103N, L121T
VL: EVVLTQSPATLSLSPGERATLSCRTSQAISNNFLAWYQQRPGQPPRLLIYASSRRATDTPDRFTGSGSGTDFTLTITRLEPEDFAVYFCQYYSDSPPYTFGPGTKLEIK
B3: PA13P1H08 variant rCDR1-N (antibody, human IgG1, V domains shown)
VH: QVQLVNSGGGVVQPGRSLRLSCVASGFTFSSYGIHWVRQAPGKGLEWVAVISNDGEKSESADSVKGRFTPSRDNSKNTVYLQMNNLRVEDTAVYYCAKVLDYSRYSYYYGMDVWGQGTTVIVSS
VL: EIVLTQSPGTLSLSPGGRGTLSCRTSQTINNAHLAWYQHKPGQAPRLLIYGSSERATGVPDRFSGSGSGSDFTLTISSLEAEDFAVYYCQHYGRSPPYTFGPGTKLDIK
B4: PA13P1H08 variant rCDR2-N (antibody, human IgG1, V domains shown)
VH: B3 VH with S31T, Y32F, N53Y, E56S, K57N, S58K
VL: B3 VL
B5: PA13P1H08 variant rFWRs-N (antibody, human IgG1, V domains shown)
VH: QVQLVESGGGVVQPGRSLRLSCAASGFTFSTFGMHWVRQAPGKGLEWVAVISNDGEKSYYADSVKGRFTISRDNSKNTLYLQMNSLRAEDTAVYYCAKVLDYSRYSYYYGMDVWGQGTTVTVSS
VL: B3 VL

Legend:
[1] = target: Ara h 1 (purified natural peanut allergen) (Arachis hypogaea) (UniProt P43238); assay: indirect ELISA
[2] = target: Ara h 1 (purified natural peanut allergen) (Arachis hypogaea) (UniProt P43238); assay: indirect ELISA, OD heat map (scale 0.0-3.0)

Binder	binding [1]	binding [2]
B1	binds	binds
B2	binds	binds
B3		binds
B4		binds
B5		binds
